Source: patent US20250360152A1, “NUTRITIONAL COMPOSITION FOR PREVENTING BRONCHITIS” (MEGMILK SNOW BRAND Co., Ltd., priority 2022, published 2025)
Some results were stated once for a whole list of compounds, not compound by compound.

System: onset of bronchitis in infants
Experiment: Logistic regression: breast milk carbohydrate component concentrations vs onset of bronchitis in infants during first year of life (153 samples)
Assay type: in vivo, human
Conditions: concentration in breast milk vs onset of infant bronchitis within one year, adjusted for sex, siblings, method of delivery, birth weight
Protocol: Various carbohydrate components were measured for 153 breast milk samples, analyzing a relationship with a presence or absence of the onset of bronchitis in infants during the first year of life using a logistic regression.
Bean Stalk Snow Co., Ltd. Conducted a prospective cohort study (UMIN ID 000015494) from 2014 to 2019 for investigating the relationship between the breast milk components of Japanese and a health status of mothers and children in Japan. In the study, breast milk samples collected from 1,210 mothers and questionnaire results of investigating the health status of mothers and children were used in the study. In addition, 200 samples were randomly selected from the 1,210 samples. The breast milk collected between 1 and 2 months after childbirth was used as the breast milk samples for analysis. […]
As a result, in the questionnaires conducted six times in total in a year, for 153 samples, questionnaires were answered correctly about whether the infants had been diagnosed with the bronchitis, and the samples became subjects to be analyzed in the study. […]
For the 153 breast milk samples, the relationship between the concentrations of N-acetylneuraminic acid, the oligosaccharide, the N-linked glycan, the O-linked glycan, the disialo N-linked glycan A, and the disialo N-linked glycan B and the onset of infant bronchitis was analyzed using the logistic regression. […]

Row | Substance | Odds ratio (listed as disialo N-linked glycan B) | Odds ratio (listed as disialo N-linked glycan A)
1 | Neu5Acα2-6Galβ1-4GlcNAcβ1-2Manα1-3 (Neu5Acα2-6Galβ1-4GlcNAcβ1-2Manα1-6) Manβ1-4GlcNAcβ1-4 (Fucα1-6) GlcNAc [Disialo N-linked glycan B] | less than 1 | –
2 | Neu5Acα2-6Galβ1-4GlcNAcβ1-2Manαl-3 (Neu5Acα2-6Galβ1-4GlcNAcβ1-2Manα1-6) Manβ1-4GlcNAcβ1-4GlcNAc [Disialo N-linked glycan A] | – | less than 1
